Reference: article PMC11300456
No constants are given. Whether binding was seen depends on the method and setting. In cells and extracts the contact can be indirect. Some results given as binding are weak or reduced against the parent protein; the word gives no strength.

Chains of the proteins cited; added tags and fusions are not shown. Lines headed by an entry give the natural chain unless they say otherwise; changes in a name come on top. A line that says so, or that is headed by a name, gives the form on record, which may keep a tag or linker.
UniProt P04198: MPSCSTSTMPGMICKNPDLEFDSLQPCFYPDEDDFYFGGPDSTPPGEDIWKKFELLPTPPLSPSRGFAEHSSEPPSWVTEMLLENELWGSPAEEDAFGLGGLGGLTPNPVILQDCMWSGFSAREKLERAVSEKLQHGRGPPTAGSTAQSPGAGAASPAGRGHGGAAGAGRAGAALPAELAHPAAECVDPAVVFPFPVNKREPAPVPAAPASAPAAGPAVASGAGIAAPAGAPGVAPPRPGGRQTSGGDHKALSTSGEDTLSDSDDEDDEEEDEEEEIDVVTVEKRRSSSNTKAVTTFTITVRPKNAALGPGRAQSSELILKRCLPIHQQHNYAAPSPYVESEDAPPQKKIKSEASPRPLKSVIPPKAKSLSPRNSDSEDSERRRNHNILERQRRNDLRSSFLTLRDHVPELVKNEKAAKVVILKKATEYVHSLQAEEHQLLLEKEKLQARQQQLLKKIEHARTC
HA-N-Myc Δ314-342 (P04198, form named): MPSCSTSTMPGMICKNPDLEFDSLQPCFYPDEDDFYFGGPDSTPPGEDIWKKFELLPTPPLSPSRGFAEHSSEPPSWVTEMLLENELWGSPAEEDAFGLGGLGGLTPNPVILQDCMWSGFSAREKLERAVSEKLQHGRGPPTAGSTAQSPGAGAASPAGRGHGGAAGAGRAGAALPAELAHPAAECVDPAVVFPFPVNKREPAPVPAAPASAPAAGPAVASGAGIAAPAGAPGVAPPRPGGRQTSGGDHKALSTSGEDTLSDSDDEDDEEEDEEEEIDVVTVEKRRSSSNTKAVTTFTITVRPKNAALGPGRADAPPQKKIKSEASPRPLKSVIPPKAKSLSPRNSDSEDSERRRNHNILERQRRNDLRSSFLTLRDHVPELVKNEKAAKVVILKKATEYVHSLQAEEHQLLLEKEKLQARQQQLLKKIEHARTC
HA-N-Myc-ΔLILKR (P04198, form named): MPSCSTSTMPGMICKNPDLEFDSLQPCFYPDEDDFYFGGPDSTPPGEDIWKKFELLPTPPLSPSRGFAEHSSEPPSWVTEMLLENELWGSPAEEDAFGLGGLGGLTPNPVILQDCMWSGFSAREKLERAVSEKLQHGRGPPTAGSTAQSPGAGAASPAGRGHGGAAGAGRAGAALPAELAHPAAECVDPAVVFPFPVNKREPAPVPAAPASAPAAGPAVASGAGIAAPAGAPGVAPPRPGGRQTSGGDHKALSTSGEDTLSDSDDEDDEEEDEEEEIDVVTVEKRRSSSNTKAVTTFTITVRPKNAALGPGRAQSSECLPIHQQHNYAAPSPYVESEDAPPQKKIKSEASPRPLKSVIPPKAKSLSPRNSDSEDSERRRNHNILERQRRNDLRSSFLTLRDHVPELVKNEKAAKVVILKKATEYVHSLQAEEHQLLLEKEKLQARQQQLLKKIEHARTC
UniProt Q9UNE7: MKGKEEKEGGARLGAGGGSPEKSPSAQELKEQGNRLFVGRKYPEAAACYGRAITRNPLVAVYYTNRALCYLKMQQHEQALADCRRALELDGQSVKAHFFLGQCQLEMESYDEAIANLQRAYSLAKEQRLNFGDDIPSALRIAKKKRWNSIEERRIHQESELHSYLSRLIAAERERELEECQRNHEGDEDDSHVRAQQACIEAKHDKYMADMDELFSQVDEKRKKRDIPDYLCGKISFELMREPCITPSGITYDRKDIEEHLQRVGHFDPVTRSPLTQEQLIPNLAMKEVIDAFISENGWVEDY

Legend:
[1] = biological target: N-Myc, endogenous (human (endogenous in CWR22Rv1 and UCDCaP-CR)) (UniProt P04198); assay: co-IP; endogenous proteins in CWR22Rv1 and UCDCaP-CR lysates; in Fig. 5f CWR22Rv1 treated with JG231 (5 µM) overnight, then MG132, precipitated with N-Myc antibody
HA-N-Myc Δ314-342 = HA-N-Myc Δ314-342 (UniProt P04198); assay: co-IP; HEK293 co-transfected with HA-N-Myc constructs and Flag-STUB1 constructs, with or without His-HSP70; lysate precipitated with anti-HA antibody; western blot
HA-N-Myc-ΔLILKR = HA-N-Myc-ΔLILKR (UniProt P04198); assay: as above
[2] = biological target: HA-tagged full-length N-Myc (amino acids 1–464) (UniProt P04198); assay: as above

| binding [1] | binding (HA-N-Myc Δ314-342) | binding (HA-N-Myc-ΔLILKR) | binding [2] | Substance |
| --- | --- | --- | --- | --- |
| binds | – | – | – | STUB1, endogenous (from UniProt Q9UNE7 1-303) (enzyme) |
| – | binds weakly | binds weakly | binds | Flag-STUB1 (from UniProt Q9UNE7 1-303) (enzyme) |
| – | – | – | binds | Flag-STUB1 K30A (from UniProt Q9UNE7 1-303) (enzyme) |
